Data on four molecules can be found in paper doi:10.1101/2023.11.13.566904.

Test in all cases: AraTM transcriptional reporter assay
The target of assay [1] is p75^NTR TMD-AraTM chimera (MBP - p75^NTR transmembrane domain - AraC), wild type (human).
Assay [2] has as its target p75^NTR TMD-AraTM chimera, V254A mutant (human).
Assay [3] deals with p75^NTR TMD-AraTM chimera, I252A mutant (human).
The target in assay [4] is p75^NTR TMD-AraTM chimera, P253G mutant (human).

Results are given in words; binding and its absence hold for the method and conditions named. Some results given as binding are weak or reduced against the parent protein; the word gives no strength. For some of these results: Where a sequence is shown, tags or fusion partners need not be part of it.

Take NLIPVYCSILAAVVVGLVAYIAFKRW (domain or fragment) [p75^NTR TMD-AraTM chimera (MBP - p75^NTR transmembrane domain - AraC), wild type]: the binding entry in assay [1] is on record as “binds”. Turning to NLIPAYCSILAAVVVGLVAYIAFKRW (domain or fragment) [p75^NTR TMD-AraTM chimera, V254A mutant], the binding result in assay [2] is on record as “binds”. Turning to NLAPVYCSILAAVVVGLVAYIAFKRW (domain or fragment) [p75^NTR TMD-AraTM chimera, I252A mutant], the binding entry in assay [3] is “binds”. For the molecule NLIGVYCSILAAVVVGLVAYIAFKRW (domain or fragment) [p75^NTR TMD-AraTM chimera, P253G mutant], the binding entry in assay [4] is “binds”.
